The conditions of the data set: 45 °C.

Where two headings read alike, the source gives them in different places.

As to hydrogen peroxide [H2O2], the “Residual Peroxide” value by setting is: (Experiment A: 30% initial, 5 s on/15 s off, 0.081 g delivered, material ABS (10 cm^2)) 2.0 μg/cm^2; (Experiment A: 30% initial, 5 s on/15 s off, 0.081 g delivered, material Santoprene (10 cm^2), * below detection level of assay) 0* μg/cm^2; (Experiment A: 30% initial, 5 s on/15 s off, 0.081 g delivered, material Silicone (10 cm^2)) 2.3 μg/cm^2; (Experiment B: 30% initial, 8 s on/12 s off, 0.165 g delivered, material ABS (10 cm^2)) 5.8 μg/cm^2; (Experiment B: 30% initial, 8 s on/12 s off, 0.165 g delivered, material Santoprene (10 cm^2), * below detection level of assay) 0.0* μg/cm^2; (Experiment B: 30% initial, 8 s on/12 s off, 0.165 g delivered, material Silicone (10 cm^2)) 4 μg/cm^2. In addition, the “Residual Peroxide” value is, setting by setting: (Experiment B: 30% initial, 8 s on/12 s off, 0.165 g delivered, material Stainless steel (10 cm^2), * below detection level of assay) 0.0* μg/cm^2; (Experiment B: 30% initial, 8 s on/12 s off, 0.165 g delivered, material glass (10 cm^2), * below detection level of assay) 0.0* μg/cm^2.

These data come from patent publication US9192164B2, “Membrane sterilization” (SABAN VENTURES PTY LIMITED, priority 2005, dated 2015).
